Measured values from PMC5636194 (Journal of nanomedicine & nanotechnology, 2017).

How the values were obtained:
Format in all cases: cell-based
U87 cells [1] = assay: Cell viability (calcein AM); conditions: 10 µM, 24, 72 and 144 hours
Procedure: (§1) U87 and T98G cells were seeded at 750 cells/well in 100 µL DMEM high glucose with pyruvate (10% FBS and 1% Pen/Strep) in a black, 96-well flat-bottomed plate, and allowed to attached overnight. […] The next morning, the plates were washed with 200 µL/well 1X PBS, which was removed and replaced with 95 µL calcein AM reagent at 1:1000 dilution in 1X PBS.

T98G cells [2] = assay: Cell viability (calcein AM); conditions: 10 µM, 24, 72 and 144 hours
Procedure: as §1

U87 cells [3] = assay: Liquid colony formation assay (4 weeks); conditions: regardless of treatment concentration
Procedure: (§2) Cells were seeded into 6-well culture plates (Falcon) at a concentration of 50 cells/well in 1 mL DMEM high glucose with pyruvate (Gibco), 10% FBS, and 1% Pen/Strep. Treatments were added to each well to obtain a pre-determined final concentration in 2 mL/well total volume. Plates were incubated for 4 weeks undisturbed, and only carefully received a media change at week 3 with or without drug treatments if colonies were not visible. Following completion of the 4-week incubation period, colonies were stained as previously described. […] Stained colonies were counted, with the number and size documented.

T98G cells [4] = assay: Liquid colony formation assay (4 weeks); conditions: 10 µM
Procedure: as §2

Structure (SMILES): CCCCCCCCC=CCCCCCCCC(=O)[O-].CN(C)c1ccc2nc3ccc(=[N+](C)C)cc-3sc2c1 [MBOS, methylene blue oleate salt]
- Cell viability over time course (U87 cells [1]): reduction in cell survival not seen until 144 hours
- Cell viability over time course (T98G cells [2]): no significant reduction in T98G cell viability until 144 hours
- Colony size and number of colonies compared to untreated cells (U87 cells [3]): little to no difference
- Average colony size compared to control (T98G cells [4]): significantly increased
